PubChem BioAssay AID1259254 | NCATS, 2017
In all, the deposit lists about 59,000 reagents; this is a part drawn at random. About 1,550 of all reagents (2.6%) were called active. 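G2 share is only a proxy for re-replication; each gene was hit by three separate siRNAs, and active genes were retested.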 Unmarked entries are inactive. The numbers tell different reagents against one gene apart. Further read-outs or replicates are left out here. No sequences are given here. Not given: the amount of reagent.

Test: 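Genome-wide screen for genes that prevent DNA re-replication in cancer cells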 (primary screen)
Cells: human HCT116 colorectal cancer cells
Reagent: single siRNA against human genes
Time to read-out: 3 days
Measured: 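Imaged Hoechst DNA stain sorts each cell into a cycle phase by DNA amount; per plate, G2 fraction set to 0% for non-targeting and 100% for GMNN siRNA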
Direction: G2 robust z-score: higher = more G2 cells, more excess DNA replication
Hit rule: 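Active siRNAs have a G2 robust z of 5 or more median absolute deviations over the median, which in these data means about 38% or higher of GMNN control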

no.	gene	siRNA no.	G2 robust z-score
1	LINC02453 (long independently transcribed non-coding RNA 2453)	1	0.998
2	LINC02453 (long independently transcribed non-coding RNA 2453)	2	-0.47
3	LINC02453 (long independently transcribed non-coding RNA 2453)	3	0.227
4	ZIC5 (Zic family zinc finger 5)	1	0.0604
5	ZIC5 (Zic family zinc finger 5)	2	0.344
6	ZIC5 (Zic family zinc finger 5)	3	-0.67
7	MMS22L (MMS22 like, DNA repair protein)	1	1.97
8	MMS22L (MMS22 like, DNA repair protein)	2	0.747
9	MMS22L (MMS22 like, DNA repair protein)	3	0.942
10	ABLIM1 (actin binding LIM protein 1)	1	-1.24
11	ABLIM1 (actin binding LIM protein 1)	2	0.98
12	ABLIM1 (actin binding LIM protein 1)	3	1.22
13	CERK (ceramide kinase)	1	1.15
14	CERK (ceramide kinase)	2	-0.344
15	CERK (ceramide kinase)	3	-0.631
16	CDH12 (cadherin 12)	1	-0.482
17	CDH12 (cadherin 12)	2	-0.895
18	CDH12 (cadherin 12)	3	0.352
19	HS6ST3 (heparan sulfate 6-O-sulfotransferase 3)	1	0.314
20	HS6ST3 (heparan sulfate 6-O-sulfotransferase 3)	2	0.304
21	HS6ST3 (heparan sulfate 6-O-sulfotransferase 3)	3	-0.741
22	DGUOK (deoxyguanosine kinase)	1	2.92
23	DGUOK (deoxyguanosine kinase)	2	-0.635
24	DGUOK (deoxyguanosine kinase)	3	0.12
25	SRSF12 (serine and arginine rich splicing factor 12)	1	-0.502
26	SRSF12 (serine and arginine rich splicing factor 12)	2	0.478
27	SRSF12 (serine and arginine rich splicing factor 12)	3	-0.839
28	STAB2 (stabilin 2)	1	-1.18
29	STAB2 (stabilin 2)	2	2.33
30	STAB2 (stabilin 2)	3	-0.816
31	FANCD2OS (FANCD2 opposite strand)	1	-0.0271
32	FANCD2OS (FANCD2 opposite strand)	2	2.15
33	FANCD2OS (FANCD2 opposite strand)	3	-0.739
34	EFNA4 (ephrin A4)	1	-0.201
35	EFNA4 (ephrin A4)	2	0.667
36	EFNA4 (ephrin A4)	3	1.82
37	ISX (intestine specific homeobox)	1	2.69
38	ISX (intestine specific homeobox)	2	4.93
39	ISX (intestine specific homeobox)	3	-0.389
40	CALU (calumenin)	1	1.28
41	CALU (calumenin)	2	-0.131
42	CALU (calumenin)	3	-0.439
43	IGFL4 (IGF like family member 4)	1	-0.516
44	IGFL4 (IGF like family member 4)	2	-0.593
45	IGFL4 (IGF like family member 4)	3	-0.301
46	IGFL4 (IGF like family member 4)	4	0.365
47	IGFL4 (IGF like family member 4)	5	-0.289
48	IGFL4 (IGF like family member 4)	6	0.244

In a second layout: entries from further up.
{"gene": "ISX (intestine specific homeobox)", "siRNA no.": 2, "G2 robust z-score": 4.93}
{"gene": "ISX (intestine specific homeobox)", "siRNA no.": 3, "G2 robust z-score": -0.389}
{"gene": "CALU (calumenin)", "siRNA no.": 1, "G2 robust z-score": 1.28}
{"gene": "CALU (calumenin)", "siRNA no.": 2, "G2 robust z-score": -0.131}
